PubChem BioAssay AID504786, Drosophila RNAi Screening Center – 2011

- Assay: 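Knock-downs reducing HIF reporter induction by the iron chelator DFO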 (primary screen)
- Cells: Drosophila S2 cells with a stable HIF luciferase reporter
- Reagents: long dsRNA against Drosophila genes, about 0.2 µg dsRNA per well of a 384-well plate
- Duration: three days of knock-down, then 20 h of DFO before reading
- Challenge: desferrioxamine (DFO) at 100 µM, an iron chelator that mimics hypoxia, for 20 h
- Detection: 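HIF reporter luminescence in cells given 100 µM DFO for 20 h, using the mouse ldh-a hypoxia-response element, scored as per-plate z-scores; higher means greater loss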
- Scale: z-score: higher = stronger loss of HIF reporter signal
In all, the deposit lists about 21,000 reagents; below is a random part of those that have a named target and a result. 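Primary screen; positive scores mean lost reporter signal, so the sign may be inverted from the usual convention.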 The numbers tell different reagents against one gene apart. Names joined by + are all predicted targets of the reagent.

no.	Gene	dsRNA no.	z-score, replicate 1	z-score, replicate 2	z-score, replicate 3	z-score, replicate 4
1	puf (GeneID 42935)	1	-0.4	-0.6		
2	CG17118 (GeneID 34478)	1	0	0		
3	Rab35 (GeneID 33014)	1	-0.5	-0.4		
4	trp (GeneID 43542)	1	0.1	-0.6		
5	swm (GeneID 35235)	1	-0.3	-0.3	-0.2	-0.2
6	CG15564 (GeneID 43696)	1	0.1	0.7		
7	eIF3h (GeneID 45682)	1	0.7	0.1		
8	RpS23 (GeneID 36576)	1	3.3	3.5		
9	CG10591 (GeneID 38634)	1	-0.4	-0.2		
10	CG4962 (GeneID 39793)	1	0.1	-0.8		
11	sov (GeneID 31615)	1	-0.4	-0.7		
12	Mccc1 (GeneID 43750)	1	-0.2	-0.3		
13	Tsp5D (GeneID 31540)	1	-0.2	-0.4		
14	sloth2 + sloth1	1	-0.2	-0.4		
15	sloth2 + sloth1	2	-0.3	-0.1		
16	CG15734 (GeneID 32177)	1	-0.3	-0.3		
17	CG5326 (GeneID 42655)	1	-0.1	-0.4		
18	CG5326 (GeneID 42655)	2	-0.2	-0.2		
19	CG12009 (GeneID 38405)	1	-0.2	0		
20	Rox8 (GeneID 42848)	1	-0.2	-0.9		
21	eIF2Bbeta (GeneID 31256)	1	-0.1	0.2		
22	mdy (GeneID 44887)	1	-0.4	-0.4		
23	mdy (GeneID 44887)	2	-0.3	-0.1		
24	mip130 (GeneID 31153)	1	0.2	-0.5		
25	Cog1 (GeneID 41479)	1	-0.2	-0.2		
26	CG14185 (GeneID 40197)	1	-0.2	-0.3		
27	Arc1 (GeneID 36595)	1	-0.3	-0.3	-0.5	-0.3
28	ENGase (GeneID 32726)	1	-1.2	-0.6		
29	ENGase (GeneID 32726)	2	-0.4	-0.3		
30	CG5191 (GeneID 42431)	1	-0.3	-1.2		
31	CG5191 (GeneID 42431)	2	0.6	0		
32	CG42710 (GeneID 10178945)	1	0.1	-0.2		
33	Dph1 (GeneID 39317)	1	-0.3	-0.4		
34	mnd (GeneID 39625)	1	-0.2	0.1		
35	CG9154 (GeneID 33858)	1	-0.3	-0.2		
36	CG7213 (GeneID 38924)	1	-0.1	-0.1		
37	CG13476 (GeneID 39602)	1	-0.3	-0.2		
38	Dera (GeneID 36358)	1	-0.3	-0.6		
39	Hsp23 (GeneID 39077)	1	-0.4	-0.5		
40	schuy (GeneID 40184)	1	-0.3	-0.4		
41	CG8654 (GeneID 37275)	1	-0.4	-1		
42	Uggt (GeneID 40055)	1	-0.4	-0.7		
43	CG10089 (GeneID 39517)	1	0.1	-0.2		
44	CG10089 (GeneID 39517)	2	-0.1	-0.2		
45	jet (GeneID 33705)	1	-0.3	-0.4		
46	lncRNA:CR32553 (GeneID 318087)	1	-0.5	-0.4		
47	knk (GeneID 47137)	1	-0.3	-0.2		
48	TTLL12 (GeneID 35732)	1	-0.2	-0.3		
49	Golgin84 (GeneID 42905)	1	-0.4	0.3		
50	CG31224 (GeneID 42237)	1	-1	-0.3		
51	CG31224 (GeneID 42237)	2	-0.1	-0.5		
52	CG14780 (GeneID 31102)	1	-0.2	-0.9		
53	Lon (GeneID 40138)	1	-0.2	-0.4		
54	CG6583 (GeneID 34645)	1	-0.3	-0.4		
55	CG17786 (GeneID 42879)	1	-0.3	-0.3		
56	Lamp1 (GeneID 35411)	1	-0.4	0.1		
57	Ssadh (GeneID 43092)	1	-0.3	-0.4		
58	CG32204 (GeneID 317913)	1	0.5	-0.3		
59	dsd (GeneID 43315)	1	0	0		
60	dsd (GeneID 43315)	2	-0.3	-0.5		
61	CG6415 (GeneID 34474)	1	-0.3	0.4		
62	Orct2 (GeneID 42890)	1	-0.3	-0.9		
63	CG33325 (GeneID 2768664)	1	-0.3	-0.1		
64	Or22c (GeneID 33381)	1	-0.2	-0.3		
65	Cpr66Cb (GeneID 38940)	1	-0.1	-0.1		
66	CG8219 (GeneID 38722)	1	-0.4	-0.7		
67	sei (GeneID 37843)	1	-0.2	-0.8		
68	CG31077 (GeneID 318583)	1	-0.4	-0.4		
69	Pstk + Tim9b	1	-0.3	-0.3		
70	Pstk + Tim9b	2	-0.3	-0.4		
71	CG16935 (GeneID 36540)	1	-0.2	-0.3		
72	CG8478 (GeneID 41194)	1	-0.3	-0.4		
73	LBR (GeneID 37482)	1	0.3	1.4		
74	CG6321 (GeneID 39233)	1	-0.4	-0.7		
75	ValRS-m (GeneID 39023)	1	0.6	0.5		
76	CG13126 (GeneID 34323)	1	0	0.5		
77	BomT2 (GeneID 50208)	1	-0.4	-0.8		
78	CG12502 (GeneID 38102)	1	-0.3	-0.5		
79	CG18557 (GeneID 33483)	1	-0.2	-0.3		
80	Rtf1 (GeneID 37554)	1	3.4	3.8		
81	TwdlM (GeneID 43200)	1	-0.2	0.5		
82	AANATL3 (GeneID 35285)	1	-0.2	0		
83	CG10939 (GeneID 44155)	1	-0.3	-0.2		
84	CG14422 (GeneID 31286)	1	-0.3	-0.7		
85	Spn28B (GeneID 34035)	1	-0.2	-0.6	-0.3	-0.1
86	CG34229 (GeneID 5740848)	1	-0.4	-0.4		
87	fat-spondin (GeneID 36919)	1	-0.2	0		
88	Np (GeneID 35904)	1	-0.3	-0.5		
89	Np (GeneID 35904)	2	-0.3	-0.3		
90	Usp7 (GeneID 32169)	1	-0.1	0		
91	Usp7 (GeneID 32169)	2	-0.2	-0.4		
92	CG9588 (GeneID 41672)	1	-0.4	-0.5		
93	CG11600 (GeneID 41555)	1	-0.3	-0.6		
94	CG12506 (GeneID 33249)	1	-0.3	0.1		
95	Vha16-5 (GeneID 34482)	1	-0.3	-0.4		
96	CG10991 (retired record) (GeneID 40730)	1	-0.3	-0.5		
97	Dlip2 (GeneID 40579)	1	-0.2	-0.6		
98	SP (GeneID 39494)	1	-0.2	-1		
99	scramb2 (GeneID 38362)	1	-0.2	0.2		
100	CG15278 (GeneID 34865)	1	6.5	-0.6		
101	kon (GeneID 35104)	1	-0.4	0.1		
102	CG31436 (GeneID 318734)	1	-0.2	0		
103	CG7367 (GeneID 34094)	1	-0.3	-0.3		
104	Bruce (GeneID 41260)	1	-0.4	-0.8		
105	CG15194 (retired record) (GeneID 32091)	1	-0.1	-0.5		
106	CG15194 (retired record) (GeneID 32091)	2	0	-0.7		

Single entries from above:
Value of CG18557 (GeneID 33483) in “z-score, replicate 2”: -0.3
For “z-score, replicate 1”, CG6583 (GeneID 34645) is entered as -0.3
mdy (GeneID 44887) #2, z-score, replicate 2: -0.1
mdy (GeneID 44887) #1, z-score, replicate 1 = -0.4
For “z-score, replicate 2”, sei (GeneID 37843) is entered as -0.8
For “z-score, replicate 1”, CG17118 (GeneID 34478) reads 0
